{"source": "the supplement of paper PMC8975748", "note": "± gives the standard deviation of the averaged measurements. The list shows a part of the results. These are raw signals, not scaled to a control.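 One yeast strain harboring four plasmids, each bearing a fluorescent protein plus an amino-acid or uracil synthesis gene, founds the community. Random loss of plasmids produces mixed prototroph and auxotroph subpopulations. Cells were fixed, then counted with automated confocal fluorescence imaging, with DMSO-treated wells as vehicle reference.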", "data": [{"system": "Saccharomyces cerevisiae BY4741 SeMeCo community", "experiment": "imaged cell count per well (cells); higher = more cells", "conditions": "10 µM; 24 h; SM minimal medium", "description": "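Same SeMeCo high-content imaging drug screen: Selleck FDA-approved drugs at 10 µM, 24 h in SM medium, 384-well plates, 3 replicates.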", "values": [{"smiles": "O=C(O)CCCCCCCC(=O)O", "note": "[Azelaic acid]", "imaged cell count per well": "19900 ± 6100"}, {"smiles": "COc1ccc(NS(=O)(=O)c2ccc(N)cc2)nn1", "note": "[Sulfamethoxypyridazine]", "imaged cell count per well": "25400 ± 14000"}, {"smiles": "CCN1CCCC1CNC(=O)c1cc(S(=O)(=O)CC)c(N)cc1OC", "note": "(stereo not drawn) [Amisulpride]", "imaged cell count per well": "26700 ± 2600"}]}]}
